In doi:10.1101/768267:
Results are given in words; binding and its absence hold for the method and conditions named. For some assays here: In cells and extracts the contact can be indirect. Where a sequence is shown, tags or fusion partners need not be part of it. Some results given as binding are weak or reduced against the parent protein; the word gives no strength.

T1: YFP-Ocln (occludin N-terminally fused with yellow fluorescent protein) (UniProt Q61146)
T1 sequence: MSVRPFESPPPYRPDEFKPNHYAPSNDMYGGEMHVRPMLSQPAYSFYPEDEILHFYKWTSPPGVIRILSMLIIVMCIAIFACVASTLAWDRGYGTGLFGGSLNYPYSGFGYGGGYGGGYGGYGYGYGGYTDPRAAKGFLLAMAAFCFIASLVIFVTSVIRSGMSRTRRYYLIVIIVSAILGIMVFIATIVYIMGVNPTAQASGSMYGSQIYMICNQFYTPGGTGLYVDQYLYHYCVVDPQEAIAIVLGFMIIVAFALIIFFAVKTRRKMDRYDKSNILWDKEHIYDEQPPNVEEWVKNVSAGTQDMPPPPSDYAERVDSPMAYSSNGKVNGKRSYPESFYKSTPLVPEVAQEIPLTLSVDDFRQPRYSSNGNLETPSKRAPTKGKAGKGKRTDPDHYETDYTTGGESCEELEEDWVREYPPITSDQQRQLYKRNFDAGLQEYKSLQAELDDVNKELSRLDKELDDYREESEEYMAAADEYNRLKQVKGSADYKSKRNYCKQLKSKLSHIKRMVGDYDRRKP

T2: EYFP- or ECFP-tagged human PMP22 (human) (UniProt Q01453)
T2 sequence: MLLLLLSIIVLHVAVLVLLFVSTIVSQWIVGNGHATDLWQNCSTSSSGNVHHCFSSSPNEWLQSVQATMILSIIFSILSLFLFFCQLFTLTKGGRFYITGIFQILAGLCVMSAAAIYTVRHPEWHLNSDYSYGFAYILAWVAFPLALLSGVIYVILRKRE

T3: EYFP- or ECFP-tagged human CLDN19b (human) (UniProt Q8N6F1)
T3 sequence: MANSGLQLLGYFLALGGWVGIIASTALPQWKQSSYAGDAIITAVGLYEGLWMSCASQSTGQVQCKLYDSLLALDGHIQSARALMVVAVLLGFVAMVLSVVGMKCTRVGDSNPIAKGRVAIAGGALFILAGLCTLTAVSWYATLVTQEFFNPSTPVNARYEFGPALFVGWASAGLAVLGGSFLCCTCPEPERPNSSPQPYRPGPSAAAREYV

T4: EYFP- or ECFP-tagged human CLDN19a (human) (UniProt Q8N6F1)
T4 sequence: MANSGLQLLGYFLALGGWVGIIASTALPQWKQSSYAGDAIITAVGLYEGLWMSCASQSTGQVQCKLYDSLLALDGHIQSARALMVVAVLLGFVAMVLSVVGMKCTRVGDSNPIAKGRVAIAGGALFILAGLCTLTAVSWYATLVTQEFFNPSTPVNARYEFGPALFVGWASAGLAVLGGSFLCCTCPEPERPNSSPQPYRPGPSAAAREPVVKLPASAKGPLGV


Columns and labels:
[1] = target: T1, YFP-Ocln (occludin N-terminally fused with yellow fluorescent protein); assay: enrichment at cell-cell contacts
[2] = target: TRQ-Cldn12 (claudin-12 N-terminally fused with pmTurquoise2) (UniProt Q9ET43); assay: enrichment at cell-cell contacts
[3] = target: T2, EYFP- or ECFP-tagged human PMP22 (human); assay: FRET or BRET
[4] = target: T3, EYFP- or ECFP-tagged human CLDN19b (human); assay: FRET or BRET
[5] = target: T4, EYFP- or ECFP-tagged human CLDN19a (human); assay: FRET or BRET

binding [1] | binding [2] | binding [3] | binding [4] | binding [5] | Binder
binds weakly | no binding | – | – | – | TRQ-Cldn12 (claudin-12 N-terminally fused with pmTurquoise2) (protein, UniProt Q9ET43 1-244) MGCRDVHAATVLSFLCGIASVAGLFAGTLLPNWRKLRLITFNRNEKNLTIYTGLWVKCARYDGSSDCLMYDRTWYLSVDQLDLRVLQFALPLSIVIAMGALLLCLIGMCNTAFNSSVPNIKLAKCLVNSAGCHLVAGLLFFLAGTVSLSPSIWAIFYNSHLNRKFEPVFTFDYAVFVTIASSGGLFMTALLLFVWYCACKSLSSPFWQPLYSHAPGMHTYSQPYSSRSRLSAIEIDIPVVSHST
– | – | no binding | no binding | no binding | EYFP- or ECFP-tagged murine Cldn12 (protein, UniProt Q9ET43 1-244) MGCRDVHAATVLSFLCGIASVAGLFAGTLLPNWRKLRLITFNRNEKNLTIYTGLWVKCARYDGSSDCLMYDRTWYLSVDQLDLRVLQFALPLSIVIAMGALLLCLIGMCNTAFNSSVPNIKLAKCLVNSAGCHLVAGLLFFLAGTVSLSPSIWAIFYNSHLNRKFEPVFTFDYAVFVTIASSGGLFMTALLLFVWYCACKSLSSPFWQPLYSHAPGMHTYSQPYSSRSRLSAIEIDIPVVSHST
